Reference: US20230324408A1
These are yes or no findings as the source states them, for the method shown. Some results given as binding are weak or reduced against the parent protein; the word gives no strength.

Amino acid sequences for entries named in this document (tags omitted). Residues count along the entry.
UniProt Q01973, residues 30-403: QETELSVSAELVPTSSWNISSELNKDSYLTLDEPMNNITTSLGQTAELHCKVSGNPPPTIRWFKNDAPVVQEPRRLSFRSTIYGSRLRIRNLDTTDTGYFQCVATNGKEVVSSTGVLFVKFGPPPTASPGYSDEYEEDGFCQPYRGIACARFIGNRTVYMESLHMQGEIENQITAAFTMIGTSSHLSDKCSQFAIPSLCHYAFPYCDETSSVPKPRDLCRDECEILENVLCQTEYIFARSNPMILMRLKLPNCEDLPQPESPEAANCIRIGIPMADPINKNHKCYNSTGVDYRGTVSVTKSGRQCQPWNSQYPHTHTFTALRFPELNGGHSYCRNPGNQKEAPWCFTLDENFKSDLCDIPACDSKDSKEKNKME

Molecular target: exemplary anti-ROR1 (ROR 1-1) chimeric antigen receptor
Assay: flow cytometry competition on primary CAR-T cells; hROR1-Fc at 10 ug/mL

## soluble recombinant ROR1-Fc (soluble human ROR1 fused to an Fc region of an IgG) (from UniProt Q01973 30-403) (Fc fusion)
  binding: binds
